PubChem BioAssay AID720505, Drosophila RNAi Screening Center, 2013

- Purpose: 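Fly regulators or components of the CRAC channel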 (primary screen)
- Cells: Drosophila S2R+ cells
- Reagents: long dsRNA against Drosophila genes
- Conditions: thapsigargin (2 µM) in calcium-free buffer to empty internal stores, then 2 mM calcium added back
- Read-out: 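Fluo-4 signal in 384-well plates read on a FLIPR after thapsigargin (2 µM, calcium-free) store depletion and 2 mM calcium add-back; unnormalised mean endpoint per well; screen run twice, selected wells retested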
- Reading the numbers: calcium signal: higher = more calcium entry after store depletion
- Rule for the call: 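Knock-downs counted as hits when calcium entry dropped relative to STIM1 positive and Rho1 negative controls present on each plate; roughly 1500 genes called, with reductions of differing size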
- Meaning of the calls: active = called as lowering calcium entry; inactive = not called
In all, the deposit lists about 20,000 reagents; shown is an unselected part of those that have a named target and a result. Over the whole deposit, about 2,100 (10%) got an active call. 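Raw plate signals without normalisation; calls rest on control-based scores that were not deposited; replicate 2 separates called from uncalled poorly.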 The numbers tell different reagents against one gene apart. Names joined by + are all predicted targets of the reagent. Not stated in the record: the amount of reagent, the time to read-out.

Which result is listed for nebu #1?
calcium signal, replicate 1: 134; calcium signal, replicate 2: 77.4; call: inactive

What did the screen give for nebu #2?
calcium signal, replicate 1: 68.3; calcium signal, replicate 2: 101; call: inactive

For Art3, how do the results read?
calcium signal, replicate 1: 108; calcium signal, replicate 2: 137; call: inactive

For vvl, how do the results read?
calcium signal, replicate 1: 107; calcium signal, replicate 2: 73.5; call: inactive

How did the screen score CG8209?
calcium signal, replicate 1: 88.1; calcium signal, replicate 2: 57.3; call: inactive

For CG18787 + CG18789, how do the results read?
calcium signal, replicate 1: 81.7; calcium signal, replicate 2: 114; call: inactive

For Tsp97E, how do the results read?
calcium signal, replicate 1: 118; calcium signal, replicate 2: 121; call: inactive

For CG14212, what was measured?
calcium signal, replicate 1: 73.6; calcium signal, replicate 2: 233; call: active

For Naus #1, what was measured?
calcium signal, replicate 1: 131; calcium signal, replicate 2: 107; call: inactive

With Naus #2, what was measured?
calcium signal, replicate 1: 209; calcium signal, replicate 2: 124; call: inactive

With CG17233, what was measured?
calcium signal, replicate 1: 152; calcium signal, replicate 2: 96.2; call: inactive

With Pus7, what was measured?
calcium signal, replicate 1: 101; calcium signal, replicate 2: 92.3; call: inactive

With CG16758, what was measured?
calcium signal, replicate 1: 165; calcium signal, replicate 2: 131; call: inactive

With CG3581, what does the deposit list?
calcium signal, replicate 1: 192; calcium signal, replicate 2: 182; call: inactive

With CG4511, how do the results read?
calcium signal, replicate 1: 160; calcium signal, replicate 2: 85.1; call: inactive

For pHCl-2, what was measured?
calcium signal, replicate 1: 220; calcium signal, replicate 2: 131; call: inactive

Which result is listed for TwdlT #1?
calcium signal, replicate 1: 153; calcium signal, replicate 2: 133; call: inactive

What did the screen give for TwdlT #2?
calcium signal, replicate 1: 166; calcium signal, replicate 2: 121; call: inactive

With Trhn, how do the results read?
calcium signal, replicate 1: 125; calcium signal, replicate 2: 119; call: inactive

How did the screen score Spn28F?
calcium signal, replicate 1: 158; calcium signal, replicate 2: 147; call: inactive

What did the screen give for chm?
calcium signal, replicate 1: 141; calcium signal, replicate 2: 174; call: inactive

What did the screen give for CG14143?
calcium signal, replicate 1: 91.7; calcium signal, replicate 2: 112; call: inactive

For CG2818, how do the results read?
calcium signal, replicate 1: 132; calcium signal, replicate 2: 216; call: inactive

With GXIVsPLA2, what does the deposit list?
calcium signal, replicate 1: 165; calcium signal, replicate 2: 119; call: inactive

For Plzf, what was measured?
calcium signal, replicate 1: 109; calcium signal, replicate 2: 113; call: inactive

For CG42326 #1, what does the deposit list?
calcium signal, replicate 1: 102; calcium signal, replicate 2: 147; call: inactive

With CG42326 #2, what does the deposit list?
calcium signal, replicate 1: 136; calcium signal, replicate 2: 152; call: inactive

What did the screen give for CG15153?
calcium signal, replicate 1: 96; calcium signal, replicate 2: 112; call: inactive
